Values from PubChem BioAssay AID686938 (Drosophila RNAi Screening Center, 2013).
Screen: 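Looking for CRAC channel components and the factors controlling them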 (primary screen). System: Drosophila S2R+ cells. Reagent: long dsRNA against Drosophila genes, about 0.25 µg dsRNA per well, roughly 10,000 cells. Timing: 5 days of knock-down before the calcium assay. Conditions: thapsigargin (SERCA pump blocker) to empty calcium stores; entry signal taken 4 min after adding it. Detection: 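Duplicate raw fluo-4 intensities per well from a plate reader, at rest and four minutes after thapsigargin emptied calcium stores; entry-to-rest ratio filled for only some wells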. Scale: calcium entry signal: higher = stronger calcium signal after store depletion; resting calcium signal: higher = higher resting calcium signal. Rule for the call: 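Called when the plate z-score of the entry-to-rest ratio, mean of duplicates, falls below −3; wells with low overall dye signal (Fmax z below −2) or more than five off-targets excluded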. Calls: active = strongly reduced calcium entry; inactive = no strong reduction.
The screen tested about 23,000 reagents; this is a random part of those that have a named target and a result. Of all reagents, 75 (0.33%) got an active call. 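Raw plate signals without normalisation; calls rest on plate z-scores that were not deposited; ratio present for only 364 wells.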 Reagents against one gene are numbered here. Names joined by + are all predicted targets of the reagent. The record does not give: the dose of the treatment.

target | reagent | calcium entry signal, replicate 1 (fluorescence units) | calcium entry signal, replicate 2 (fluorescence units) | resting calcium signal, replicate 1 (fluorescence units) | resting calcium signal, replicate 2 (fluorescence units) | Call
lncRNA:CR30121 (long non-coding RNA:CR30121) | 1 | 2.58e7 | 2.96e7 | 1.45e7 | 1.52e7 | inactive
Vha14-2 (Vacuolar H[+] ATPase 14kD subunit 2) | 1 | 5.55e7 | 3.81e7 | 2.48e7 | 1.77e7 | inactive
CSN1b (COP9 signalosome subunit 1b) | 1 | 3.17e7 | 3.82e7 | 1.78e7 | 2.89e7 | inactive
MetRS (Methionyl-tRNA synthetase) | 1 | 3.56e7 | 2.66e7 | 1.73e7 | 1.20e7 | inactive
Cpr66Cb (Cuticular protein 66Cb) | 1 | 2.77e7 | 4.88e7 | 1.29e7 | 2.12e7 | inactive
Oseg6 (Outer segment 6) | 1 | 4.63e7 | 6.34e7 | 1.98e7 | 2.92e7 | inactive
Desat2 (Desaturase 2) | 1 | 4.15e7 | 3.65e7 | 1.93e7 | 1.82e7 | inactive
CG5921 | 1 | 2.84e7 | 3.62e7 | 1.39e7 | 1.80e7 | inactive
CG5921 | 2 | 4.13e7 | 5.20e7 | 1.95e7 | 2.40e7 | inactive
az2 | 1 | 4.56e7 | – | 2.40e7 | – | inactive
CG15042 | 1 | 3.94e7 | 3.36e7 | 2.06e7 | 1.56e7 | inactive
CG14075 | 1 | 1.78e7 | 3.81e7 | 9.59e6 | 1.70e7 | inactive
His3.3A (Histone H3.3A) | 1 | 2.07e7 | 2.00e7 | 1.24e7 | 1.19e7 | inactive
mtsh (mitoshell) | 1 | 3.01e7 | 4.53e7 | 1.36e7 | 1.83e7 | inactive
Desi (Desiccate) | 1 | 3.95e7 | 3.76e7 | 1.94e7 | 2.06e7 | inactive
PyK (Pyruvate kinase) | 1 | 2.63e7 | 3.48e7 | 1.66e7 | 5.64e7 | inactive
Tab2 (TAK1-associated binding protein 2) | 1 | 4.52e7 | 3.84e7 | 2.13e7 | 1.92e7 | inactive
msn (misshapen) | 1 | 4.35e7 | 4.81e7 | 2.55e7 | 2.16e7 | inactive
msn (misshapen) | 2 | 4.13e7 | 5.48e7 | 2.18e7 | 2.38e7 | inactive
Klp59D (Kinesin-like protein at 59D) | 1 | 3.66e7 | 4.29e7 | 1.98e7 | 2.01e7 | inactive
Dnah3 (dynein, axonemal, heavy chain 3) | 1 | 3.10e7 | 3.85e7 | 1.41e7 | 1.71e7 | inactive
Dnah3 (dynein, axonemal, heavy chain 3) | 2 | 2.82e7 | 3.90e7 | 1.34e7 | 1.64e7 | inactive
CG18213 | 1 | 3.99e7 | 5.94e7 | 1.78e7 | 5.87e7 | inactive
nsr (novel spermatogenesis regulator) | 1 | 3.56e7 | – | 1.86e7 | – | inactive
nsr (novel spermatogenesis regulator) | 2 | 3.22e7 | 3.63e7 | 1.73e7 | 1.86e7 | inactive
CG13946 | 1 | 2.42e7 | 2.45e7 | 1.13e7 | 1.12e7 | inactive
foi (fear-of-intimacy) | 1 | 3.04e7 | 3.76e7 | 1.53e7 | 1.81e7 | inactive

Records above whose target name starts with M or m:
target | reagent | calcium entry signal, replicate 1 (fluorescence units) | calcium entry signal, replicate 2 (fluorescence units) | resting calcium signal, replicate 1 (fluorescence units) | resting calcium signal, replicate 2 (fluorescence units) | Call
MetRS (Methionyl-tRNA synthetase) | 1 | 3.56e7 | 2.66e7 | 1.73e7 | 1.20e7 | inactive
mtsh (mitoshell) | 1 | 3.01e7 | 4.53e7 | 1.36e7 | 1.83e7 | inactive
msn (misshapen) | 1 | 4.35e7 | 4.81e7 | 2.55e7 | 2.16e7 | inactive
msn (misshapen) | 2 | 4.13e7 | 5.48e7 | 2.18e7 | 2.38e7 | inactive

Next reagents:
target | reagent | calcium entry signal, replicate 1 (fluorescence units) | calcium entry signal, replicate 2 (fluorescence units) | resting calcium signal, replicate 1 (fluorescence units) | resting calcium signal, replicate 2 (fluorescence units) | Call
CG15084 | 1 | 2.23e7 | 4.89e7 | 1.07e7 | 2.45e7 | inactive
CG15084 | 2 | 3.95e7 | 4.34e7 | 2.32e7 | 1.96e7 | inactive
CG11791 | 1 | 4.32e7 | 4.83e7 | 2.39e7 | 2.17e7 | inactive
CG31798 | 1 | 2.87e7 | 4.27e7 | 1.64e7 | 2.19e7 | inactive
Nopp140 | 1 | 2.90e7 | 4.56e7 | 1.42e7 | 1.93e7 | inactive
CG31776 | 1 | 2.73e7 | 3.08e7 | 1.37e7 | 1.53e7 | inactive
CG17075 | 1 | 3.86e7 | – | 2.03e7 | – | inactive
dsh (dishevelled) | 1 | 3.11e7 | 5.78e7 | 1.56e7 | 2.65e7 | inactive
CG5386 | 1 | 5.42e7 | 5.99e7 | 4.79e7 | 3.15e7 | inactive
Ciao1 | 1 | 4.22e7 | 4.05e7 | 1.84e7 | 1.93e7 | inactive
Grx1t (Glutaredoxin 1, testis-specific) | 1 | 5.07e7 | 6.22e7 | 2.60e7 | 2.60e7 | inactive
CG11369 | 1 | 3.16e7 | 3.30e7 | 1.63e7 | 1.64e7 | inactive
CG1077 | 1 | 4.86e7 | 1.58e7 | 2.29e7 | 9.15e6 | inactive
CG13154 | 1 | 2.47e7 | 3.27e7 | 1.42e7 | 1.72e7 | inactive
Ltn1 (Listerin E3 ubiquitin protein ligase 1) | 1 | 2.60e7 | 3.44e7 | 1.22e7 | 2.35e7 | inactive
Ltn1 (Listerin E3 ubiquitin protein ligase 1) | 2 | 3.21e7 | 5.55e7 | 1.56e7 | 2.30e7 | inactive
Sr-CII (Scavenger receptor class C, type II) | 1 | 2.60e7 | 4.12e7 | 1.38e7 | 1.78e7 | inactive
CG30159 | 1 | 4.06e7 | – | 2.05e7 | – | inactive
Mlc1 (Myosin alkali light chain 1) | 1 | 2.23e7 | 3.37e7 | 1.22e7 | 1.65e7 | inactive
CG1835 | 1 | 5.74e7 | 4.63e7 | 2.73e7 | 2.09e7 | inactive
Nsf2 (N-ethylmaleimide-sensitive factor 2) | 1 | 3.60e7 | 4.81e7 | 1.77e7 | 2.63e7 | inactive
CG34376 | 1 | 2.80e7 | 3.83e7 | 6.78e7 | 1.59e7 | inactive
CG34376 | 2 | 3.23e7 | 3.57e7 | 6.51e7 | 1.54e7 | inactive
CG34376 | 3 | 4.01e7 | 3.48e7 | 6.16e7 | 1.63e7 | inactive
CG8916 | 1 | 3.45e7 | 3.74e7 | 1.70e7 | 1.54e7 | inactive
CG13331 | 1 | 3.58e7 | 3.68e7 | 1.75e7 | 1.54e7 | inactive
Ir54a + sub | 1 | 3.94e7 | 5.02e7 | 1.90e7 | 2.47e7 | inactive
CG2528 | 1 | 3.02e7 | 4.29e7 | 1.51e7 | 1.83e7 | inactive
CG11060 | 1 | 3.74e7 | – | 2.06e7 | – | inactive
CG18180 | 1 | 5.36e7 | 4.00e7 | 3.48e7 | 1.61e7 | inactive
CG14246 | 1 | 3.65e7 | 5.45e7 | 1.95e7 | 2.62e7 | inactive
